In US9090667B2, “Cyclic peptide from Nonomuraea sp., process for the production thereof, and pharmaceutical composition for the prevention or treatment of mycobacteria related disease comprising the same” (priority 2011, dated 2015):
At least one compound was matched to its structure with a doubt left.

Test system: Nonomuraea sp. MJM5123
Experiment: Antibiotic resistance test of the producing strain
Format: cell-based
Conditions: ISP2 medium, 2 weeks at 28° C.
Experimental: To test for melanoid pigments, peptone yeast extract iron agar (ISP6) and tyrosine agar (ISP7, with or without tyrosine) was used. Temperature range, NaCl tolerance and pH range for growth was determined on ISP3 medium and antibiotic resistance test was performed on ISP2 medium for 2 weeks at 28° C.

## NC[C@H]1O[C@H](O[C@H]2[C@H](O)[C@@H](O[C@H]3O[C@H](CO)[C@@H](O)[C@H](N)[C@H]3O)[C@H](N)C[C@@H]2N)[C@H](O)[C@@H](O)[C@@H]1O [Kanamycin]
  susceptibility of MJM5123 to the antibiotic: susceptible
